Numbering of substitutions follows the chain as printed. No constants are given. Whether binding was seen depends on the method and setting. In cells and extracts the contact can be indirect. Some results given as binding are weak or reduced against the parent protein; the word gives no strength. For part of these data: Tags and fused reporters may be left off the sequences shown.
What was measured:
Assay in all cases: co-IP
Flag-PJA2 (human) = target: T1, Flag-PJA2 (human) (UniProt O43164)
T1 sequence: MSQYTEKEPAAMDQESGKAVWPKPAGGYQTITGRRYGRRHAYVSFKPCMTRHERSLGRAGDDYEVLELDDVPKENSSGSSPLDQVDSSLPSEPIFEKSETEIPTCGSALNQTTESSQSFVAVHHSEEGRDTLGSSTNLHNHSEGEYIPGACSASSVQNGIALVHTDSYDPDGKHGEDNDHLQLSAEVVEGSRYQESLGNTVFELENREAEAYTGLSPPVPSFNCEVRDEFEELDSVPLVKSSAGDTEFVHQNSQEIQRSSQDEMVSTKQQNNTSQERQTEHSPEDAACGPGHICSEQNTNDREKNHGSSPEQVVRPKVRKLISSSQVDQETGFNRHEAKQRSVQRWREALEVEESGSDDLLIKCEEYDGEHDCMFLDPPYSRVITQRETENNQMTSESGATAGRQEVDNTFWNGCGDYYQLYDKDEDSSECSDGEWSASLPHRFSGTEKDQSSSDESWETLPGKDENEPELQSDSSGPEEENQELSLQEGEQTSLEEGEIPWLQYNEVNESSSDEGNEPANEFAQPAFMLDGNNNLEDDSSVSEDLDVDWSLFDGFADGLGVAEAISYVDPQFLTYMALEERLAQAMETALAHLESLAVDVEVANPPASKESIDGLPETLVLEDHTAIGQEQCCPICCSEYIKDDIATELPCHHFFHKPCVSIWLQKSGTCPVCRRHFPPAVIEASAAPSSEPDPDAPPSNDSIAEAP

Amino acid sequences for entries named in this document (tags omitted).
UniProt P23458: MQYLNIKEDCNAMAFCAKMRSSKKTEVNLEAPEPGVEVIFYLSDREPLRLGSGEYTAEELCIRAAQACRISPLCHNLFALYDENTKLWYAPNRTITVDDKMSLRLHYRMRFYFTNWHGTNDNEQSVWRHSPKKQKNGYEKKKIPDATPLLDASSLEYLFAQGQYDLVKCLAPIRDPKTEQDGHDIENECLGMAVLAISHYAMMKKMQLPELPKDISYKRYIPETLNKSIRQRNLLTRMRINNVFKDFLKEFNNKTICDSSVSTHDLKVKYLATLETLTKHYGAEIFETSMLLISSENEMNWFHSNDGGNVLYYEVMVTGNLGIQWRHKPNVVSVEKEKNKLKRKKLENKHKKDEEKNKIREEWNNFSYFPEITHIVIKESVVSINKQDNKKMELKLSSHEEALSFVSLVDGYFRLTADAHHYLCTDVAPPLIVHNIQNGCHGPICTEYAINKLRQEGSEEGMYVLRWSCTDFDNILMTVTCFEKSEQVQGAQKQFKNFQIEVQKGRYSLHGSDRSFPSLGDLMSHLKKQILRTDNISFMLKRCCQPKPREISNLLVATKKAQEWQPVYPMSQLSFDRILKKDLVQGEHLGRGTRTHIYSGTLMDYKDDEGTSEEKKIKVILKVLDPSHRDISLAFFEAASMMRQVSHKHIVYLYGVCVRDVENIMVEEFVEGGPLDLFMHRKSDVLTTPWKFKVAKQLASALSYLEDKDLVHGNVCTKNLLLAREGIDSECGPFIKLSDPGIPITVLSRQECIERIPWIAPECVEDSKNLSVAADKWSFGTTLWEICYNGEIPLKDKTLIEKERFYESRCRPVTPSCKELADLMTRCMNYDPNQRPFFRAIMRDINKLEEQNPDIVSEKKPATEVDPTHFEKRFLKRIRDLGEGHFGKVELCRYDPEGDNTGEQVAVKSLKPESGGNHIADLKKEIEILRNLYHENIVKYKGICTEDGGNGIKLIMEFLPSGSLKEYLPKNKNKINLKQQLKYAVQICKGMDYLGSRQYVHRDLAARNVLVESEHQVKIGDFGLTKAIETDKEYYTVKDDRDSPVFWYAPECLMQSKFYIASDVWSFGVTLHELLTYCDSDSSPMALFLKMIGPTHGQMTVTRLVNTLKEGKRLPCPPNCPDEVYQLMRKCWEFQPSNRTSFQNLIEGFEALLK
UniProt P52630: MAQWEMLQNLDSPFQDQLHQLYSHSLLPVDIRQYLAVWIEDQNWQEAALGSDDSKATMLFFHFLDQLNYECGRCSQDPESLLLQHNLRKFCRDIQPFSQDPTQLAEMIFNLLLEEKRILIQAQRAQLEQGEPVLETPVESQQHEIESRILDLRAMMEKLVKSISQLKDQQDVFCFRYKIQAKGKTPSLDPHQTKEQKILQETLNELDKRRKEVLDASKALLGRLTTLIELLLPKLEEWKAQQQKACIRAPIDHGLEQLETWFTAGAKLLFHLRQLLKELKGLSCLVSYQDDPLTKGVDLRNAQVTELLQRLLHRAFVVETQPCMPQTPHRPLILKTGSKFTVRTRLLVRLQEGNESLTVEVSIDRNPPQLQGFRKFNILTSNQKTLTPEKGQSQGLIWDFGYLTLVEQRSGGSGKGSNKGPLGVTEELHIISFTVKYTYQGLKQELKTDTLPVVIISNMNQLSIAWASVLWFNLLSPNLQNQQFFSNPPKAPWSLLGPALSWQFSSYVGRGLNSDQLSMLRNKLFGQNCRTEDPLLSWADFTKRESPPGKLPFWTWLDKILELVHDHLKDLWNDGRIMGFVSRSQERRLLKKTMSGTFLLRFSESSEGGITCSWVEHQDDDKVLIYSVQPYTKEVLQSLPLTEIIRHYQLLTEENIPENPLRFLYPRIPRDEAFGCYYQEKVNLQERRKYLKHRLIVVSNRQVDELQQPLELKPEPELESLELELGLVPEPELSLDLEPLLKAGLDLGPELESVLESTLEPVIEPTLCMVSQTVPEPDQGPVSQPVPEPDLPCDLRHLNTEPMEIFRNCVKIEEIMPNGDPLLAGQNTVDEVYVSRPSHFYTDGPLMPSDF
UniProt P42224: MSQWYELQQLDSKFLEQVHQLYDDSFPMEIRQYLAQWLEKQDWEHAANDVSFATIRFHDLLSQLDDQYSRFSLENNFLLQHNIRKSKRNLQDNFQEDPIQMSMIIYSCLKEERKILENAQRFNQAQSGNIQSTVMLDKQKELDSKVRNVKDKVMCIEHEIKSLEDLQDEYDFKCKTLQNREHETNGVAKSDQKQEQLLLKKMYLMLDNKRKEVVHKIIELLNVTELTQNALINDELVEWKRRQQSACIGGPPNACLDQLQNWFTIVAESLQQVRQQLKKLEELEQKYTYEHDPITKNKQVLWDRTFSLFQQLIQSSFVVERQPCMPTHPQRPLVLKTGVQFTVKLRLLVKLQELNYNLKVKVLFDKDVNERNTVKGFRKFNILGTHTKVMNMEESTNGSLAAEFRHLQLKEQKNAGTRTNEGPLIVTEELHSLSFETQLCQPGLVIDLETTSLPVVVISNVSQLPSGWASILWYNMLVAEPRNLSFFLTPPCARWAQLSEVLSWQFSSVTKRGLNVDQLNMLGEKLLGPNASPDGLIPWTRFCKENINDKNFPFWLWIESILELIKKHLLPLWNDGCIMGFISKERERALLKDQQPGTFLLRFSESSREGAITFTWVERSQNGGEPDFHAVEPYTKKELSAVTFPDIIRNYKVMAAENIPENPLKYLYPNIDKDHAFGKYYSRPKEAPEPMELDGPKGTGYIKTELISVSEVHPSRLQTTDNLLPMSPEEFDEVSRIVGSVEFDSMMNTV

Flag-PJA2-rm (human) = target: T2, Flag-PJA2-rm (human) (UniProt O43164)
T2 sequence: T1 sequence with C634A, C671A

V5-TYK2 (human) = V5-TYK2 (human) (UniProt P29597)
V5-TYK2(1-588) (human) = target: T3, V5-TYK2(1-588) (human) (UniProt P29597)
T3 sequence: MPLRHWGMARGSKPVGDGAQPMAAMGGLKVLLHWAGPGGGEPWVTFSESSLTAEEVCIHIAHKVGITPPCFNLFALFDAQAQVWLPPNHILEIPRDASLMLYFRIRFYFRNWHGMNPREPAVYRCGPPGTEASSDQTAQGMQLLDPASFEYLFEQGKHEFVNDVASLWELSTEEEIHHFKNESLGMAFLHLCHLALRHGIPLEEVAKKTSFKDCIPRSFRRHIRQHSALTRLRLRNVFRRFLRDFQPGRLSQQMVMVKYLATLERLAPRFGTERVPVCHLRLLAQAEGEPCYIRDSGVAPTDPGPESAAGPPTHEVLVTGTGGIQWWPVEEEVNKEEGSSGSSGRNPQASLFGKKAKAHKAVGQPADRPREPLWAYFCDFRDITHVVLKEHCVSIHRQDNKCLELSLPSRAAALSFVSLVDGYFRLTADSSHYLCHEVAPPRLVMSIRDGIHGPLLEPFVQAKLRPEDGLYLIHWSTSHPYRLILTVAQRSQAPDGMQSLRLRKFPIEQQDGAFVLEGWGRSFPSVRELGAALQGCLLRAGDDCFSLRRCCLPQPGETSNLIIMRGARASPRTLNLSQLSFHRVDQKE

[1] = target: TurboID-V5-JAK1 (HEK293T) (human) (UniProt P23458)
[2] = target: TurboID-V5-STAT2 (HEK293T) (human) (UniProt P52630)
[3] = target: T4, TurboID-V5-IRF9 (HEK293T) (human) (UniProt Q00978)
T4 sequence: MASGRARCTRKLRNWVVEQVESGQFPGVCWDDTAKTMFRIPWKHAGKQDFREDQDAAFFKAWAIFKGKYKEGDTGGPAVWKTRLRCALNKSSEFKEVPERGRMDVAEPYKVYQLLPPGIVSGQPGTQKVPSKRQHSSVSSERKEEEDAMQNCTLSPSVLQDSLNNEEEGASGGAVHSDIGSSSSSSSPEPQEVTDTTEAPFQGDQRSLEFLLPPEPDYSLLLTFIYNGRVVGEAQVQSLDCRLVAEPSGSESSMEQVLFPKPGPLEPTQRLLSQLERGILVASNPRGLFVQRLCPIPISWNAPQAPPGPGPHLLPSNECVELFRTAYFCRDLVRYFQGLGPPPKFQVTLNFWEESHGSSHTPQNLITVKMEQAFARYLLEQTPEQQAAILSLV

[4] = target: TurboID-V5-STAT1 (HEK293T) (human) (UniProt P42224)
[5] = target: TurboID-V5-TYK2 (HEK293T) (human) (UniProt P29597)

## TYK2 (endogenous, HEK293T) (from UniProt P29597 1-1187) (enzyme)
Flag-PJA2 (human)
  binding: binds
Flag-PJA2-rm (human)
  binding: binds

B1: PJA2 (endogenous, HEK293T) (enzyme, UniProt O43164 1-708)
chain: T1 sequence
V5-TYK2 (human)
  binding: binds
V5-TYK2(1-588) (human)
  binding: binds

B2: Flag-PJA2 (enzyme, UniProt O43164-1 1-708)
chain: T1 sequence
[1]
  binding: binds
[2]
  binding: no binding
[3]
  binding: no binding
[4]
  binding: no binding
[5]
  binding: binds

From doi:10.1101/2023.10.04.560926
